Measurements taken from article PMC6171917.
No constants are given. Whether binding was seen depends on the method and setting. For some assays here: A result given as binding can be weak or reduced; the word gives no strength. Tags and fused reporters may be left off the sequences shown.

Legend:
[1] = molecular target: desmin-coil 2 (human); test: far-Western, overlay or dot blot; FluoBACE overlay of western blot: whole extracts from E. coli expressing the proteins on 15% SDS-PAGE, transferred, overlaid 1 h at 4°C with soluble HEK 293T extract with EGFP-DSP C-terminus (67 ± 17 nM total), fluorescence scan
[2] = molecular target: desmin-coil 1 (human); test: as above

B1: EGFP-DSP C-terminus (C-terminus of desmoplakin tagged at the N-terminus with EGFP) (domain or fragment, UniProt P15924-1 2194-2871)
chain: PHTGLLLLSVQKRSMSFQGIRQPVTVTELVDSGILRPSTVNELESGQISYDEVGERIKDFLQGSSCIAGIYNETTKQKLGIYEAMKIGLVRPGTALELLEAQAATGFIVDPVSNLRLPVEEAYKRGLVGIEFKEKLLSAERAVTGYNDPETGNIISLFQAMNKELIEKGHGIRLLEAQIATGGIIDPKESHRLPVDIAYKRGYFNEELSEILSDPSDDTKGFFDPNTEENLTYLQLKERCIKDEETGLCLLPLKEKKKQVQTSQKNTLRKRRVVIVDPETNKEMSVQEAYKKGLIDYETFKELCEQECEWEEITITGSDGSTRVVLVDRKTGSQYDIQDAIDKGLVDRKFFDQYRSGSLSLTQFADMISLKNGVGTSSSMGSGVSDDVFSSSRHESVSKISTISSVRNLTIRSSSFSDTLEESSPIAAIFDTENLEKISITEGIERGIVDSITGQRLLEAQACTGGIIHPTTGQKLSLQDAVSQGVIDQDMATRLKPAQKAFIGFEGVKGKKKMSAAEAVKEKWLPYEAGQRFLEFQYLTGGLVDPEVHGRISTEEAIRKGFIDGRAAQRLQDTSSYAKILTCPKTKLKISYKDAINRSMVEDITGLRLLEAASVSSKGLPSPYNMSSAPGSRSGSRSGSRSGSRSGSRSGSRRGGFDATGNSSYSYSYSFSSSSIGH
Question: Which results are given for B1?
Answer: binding [1]: no binding (tested: 67 ± 17 nM, total concentration); binding [2]: binds
